The other results are listed elsewhere or left out.
B1: il2ra_site1_1z92_sap_20_mot_HHH_b1_00285_000000009_0001_24_39_H_._HHH_b1_00621_0001_0000100001_0000001_0_0001 (protein)
chain: DVEEELRELAKELGLPPEELEELLERLERRSDAPPEVALRHLLIVLKLAGSAETVKRFVEKLEKS
B2: il2ra_site2_2erj_normal_mot_HHH_b2_04899_000000077_0001_20_36_H_._HHH_b1_07730_0001_0000100001_0000001_0 (protein)
chain: SSSSDVEERVEELLREAEELLERGNPEEAFVVLSEASHIAARNDNPELLRLLLELHEQIFSSSSS
B3: il2ra_site2_2erj_sap_18_mot_e3be008b04150b5953e9f850c9479793_0001_000000253_0001_15_29_H_._HHH_b2_07896_0001_0000300037_0000001_1_0001_af2pred_0001_1_af2pred_sw … (protein)
chain: SSSSSSEAEELVEELVEELNLSEELKKLLEEIAKLLEESGYNEELAREHLKLAVENLEESSSSSS
B4: il2ra_site2_2erj_normal_mot_HHH_b2_01275_af2_000000073_0001_23_39_H_._HHH_b2_07286_0001_0000200028_0000001_0 (protein)
chain: SSSSDEEERRVRELLEEAEELHERGNLEEVYKLAVEALHVASEAGDQELQREIAKFVEELSSSSS
B5: il2ra_site2_3nfp_sap_13_mot_HHH_b1_06788_af2_000000115_0001_19_36_H_._HHH_b1_05865_0001_0000300012_0000001_1_0001 (protein)
chain: SSSSDEERVRELLERAEELLERGNPEEARKLLAEAAHVAWEANNPELFMAVAEFLFRHAQSSSSS
B6: il2ra_site1_2b5i_normal_mot_HHH_b2_06557_000000121_0001_42_56_H_._HHH_b2_02609_af2_0001_0000300044_0000001_0 (protein)
chain: SSSSDEVHERVDELNNQAARAYKNGNPEEAKELIEEALELAEENNDERLAEQLKEYLRFVSSSSS
B7: il2ra_site1_2b5i_sap_15_mot_f5ff40796168375b462bec8614a1db4a_0001_1_000000138_0001_53_65_H_._HHH_b1_00174_af2_0001_0000300025_0000001_0_0001_af2pred_dldesign_0_ … (protein)
chain: SSSSCPDHVEARRLLLEADALRQAGREEEAAEVLARLGALAAASGCPLVRKLYAELQRLESSSSS
B8: il2ra_site2_3nfp_sap_13_mot_HHH_b2_07946_000000046_0001_20_36_H_._HHH_b2_01751_0001_0000100004_0000001_0_0001 (protein)
chain: SSSSNEYVKAALELLRLALEENDDEQFERLVEMIRLAVETAEDEEAREILERLEEEFERRLSSSS
B9: il2ra_site1_3nfp_sap_14_mot_HHH_b1_03429_af2_000000091_0001_1_19_H_._HHH_b2_06817_0001_0000200013_0000001_0_0001_af2pred_0001_af2pred_swapped (protein)
chain: SVEEVLEELKRDGNAAVRRLAEDVEAALKLGIPPEEIIRALKRAAEQTKDPKVREVAELLEQLLK
B10: il2ra_site2_2erj_normal_mot_HHH_b1_05749_af2_000000086_0001_23_39_H_._HHH_b2_06624_af2_0001_0000700026_0000001_0 (protein)
chain: SSSSSDQELLEFIYKLAAELGASAEEVQEAFERATELLRRGVSEEEIEEILREFLEELRHSSSSS
B11: il2ra_site2_3nfp_normal_mot_HHH_b1_06589_000000230_0001_37_50_H_._HHH_b1_03508_0001_0000300009_0000001_0_af2pred_0001_af2pred (protein)
chain: SSSSDEEELEELLERIEEAVRRGDHELFEELARRLLELIRELGDVHMLIRLAELKKRFEQGSSSS
B12: il2ra_site2_2erj_sap_22_mot_HHH_b2_05804_000000098_0001_44_58_H_._HHH_b2_06227_af2_0001_0000100001_0000001_0_0001_af2pred_0001_af2pred (protein)
chain: SSSSDQEVRELIEEAEEAIRRNDPQAVFRLNREAQRLAEELNDPELRKFVAELARVAAEFLSSSS
B13: il2ra_site1_3nfp_sap_8_mot_1dfc56a8f07a39e834a69883c800ee5d_0001_1_af2_000000182_0001_1_15_H_._ems_3hC_1146_0001_0001800033_0000001_0_0001_af2pred_0001_af2pred_ … (protein)
chain: SEEEELKRAVEQLAKRFGVPHVEVETENGKYHVTIEGDNREAKLVAKLIEEFAKQRNIDLTVEVE
B14: il2ra_site2_2erj_normal_mot_HHH_b1_03107_000000098_0001_39_52_H_._HHH_b1_01890_0001_0000200005_0000001_0 (protein)
chain: SSSSDALEIAAELSVEALELFKNGNPEEARRVIEEAEEEIKELGNEAALRYLEFARRDLERSSSS
B15: il2ra_site1_1z92_sap_13_mot_HHH_b2_05648_af2_000000135_0001_42_57_H_._94f557e17ac761c6798c16b9e748a37e_0001_1_0001_0000200019_0000001_0_0001_af2pred_0001_af2pre … (protein)
chain: SEEERLEELLEELGVPPEDIRALRKDFKRAQEAGIPPEVVVKALIRILRRKGDPLAEEALELFLK
B16: il2ra_site2_3nfp_sap_32_mot_HHH_b1_01767_000000280_0001_1_18_H_._1426d49a9706e560ad12cebec5766a74_0001_1_0001_0000100004_0000001_0_0001 (protein)
chain: SSSSDKSEEYLKVAVEIIRAALKEGDPEVAERLLKVLKAAAESANDEEVEELVRELEELLSSSSS
B17: il2ra_site1_2b5i_sap_18_mot_HHH_b1_01419_af2_000000080_0001_42_53_H_._HHH_b1_01280_af2_0001_0000300024_0000001_0_0001 (protein)
chain: SSSSSDEADEEVQRLFAEASHIPDPEEAVKVLEEALRLAEEEGDENIRRDLEFMIERFRGSSSSS
B18: il2ra_site1_2b5i_sap_7_mot_HHH_b1_00095_000000042_0001_1_14_H_._fa9d0efb6cdfa3d48f532c1d34b61b18_0001_af2_0001_0000100002_0000001_0_0001 (protein)
chain: SSSSSDLEEEASELFHEASHLWRKGDPRARELLEEAIELARELGDEELLRQLERAYRIFGSSSSS
B19: il2ra_site1_2b5i_normal_mot_HHH_b1_02476_af2_000000255_0001_1_19_H_._HHH_b2_05139_af2_0001_0000300024_0000001_0_af2pred_dldesign_0_af2pred (protein)
chain: SSSSDEVYEEIDRLYKEALELKKAGKKEEAMKLLDKAIELAKKANDEKTLAQLEKLKTLLSSSSS
B20: il2ra_site1_3nfp_normal_mot_HHH_b1_05070_af2_000000282_0001_43_57_H_._HHH_b1_08541_0001_0000400027_0000001_0 (protein)
chain: SSSSSEEEREARELAQEIYELMKEGDEEEAKELLERLRELVKELGDKVARYFVKMLEEILHSSSS
B21: il2ra_site2_2erj_sap_25_mot_HHH_b2_01204_af2_000000056_0001_19_34_H_._HHH_b2_03606_0001_0000300020_0000001_0_0001 (protein)
chain: SSSSSSELEELLEEAKQLLEEGNPEEAERVLLEAFELAAEKGDHEVAAAVIELIARIAKSSSSSS
B22: il2ra_site2_3nfp_normal_mot_HHH_b1_06589_000000230_0001_37_50_H_._HHH_b1_03283_af2_0001_0000400020_0000001_1 (protein)
chain: SSSDHHEAYALLADALFLAYQNNNEELLQKLARLLHELYEHKDPELAEELRRLAEEVEKELSSSS
B23: il2ra_site1_2b5i_sap_13_mot_HHH_b2_00318_000000002_0001_42_56_H_._ac21b6101d1b909bc51415b35f28fc50_0001_0001_0000100012_0000001_0_0001_af2pred_0001_af2pred_1 (protein)
chain: SSSSDEKEEEVQELAKEAIEKLEKNGSRLRAEALRRMLEELEKEGDPRVLEQLEHLVKRILSSSS
B24: il2ra_site2_2erj_normal_mot_HHH_b1_06697_000000025_0001_41_54_H_._HHH_b2_03722_0001_0000300007_0000001_0_af2pred_0001_1_af2pred_swapped (protein)
chain: SSSSSDKEEVEERVREILEEAEQVRDPREALKILEKADRLASENNNEEALELIHEVLQRLSSSSS

Biological target: il2ra, P01589
Assay: yeast display titration

Apparent Kd, inactive:
B1 no binding seen
B2 no binding seen
B3 no binding seen
B4 no binding seen
B5 no binding seen
B6 no binding seen
B7 no binding seen
B8 no binding seen
B9 no binding seen
B10 no binding seen
B11 no binding seen
B12 no binding seen
B13 no binding seen
B14 no binding seen
B15 no binding seen
B16 no binding seen
B17 no binding seen
B18 no binding seen
B19 no binding seen
B20 > 0.67 µM
B21 no binding seen
B22 no binding seen
B23 no binding seen
B24 no binding seen

2 neighbouring records from above, for reference:
Apparent Kd, inactive:
B17 no binding seen
B18 no binding seen

— article PMC10163288
